Source: article PMC4746591, “Internal (His)6-tagging delivers a fully functional hetero-oligomeric class II chaperonin in high yield” (Scientific Reports, 2016)
These are yes or no findings as the source states them, for the method shown. For some of these results: Binding seen in cells or lysates may run through a third protein. Some binding calls cover weakened binding; strength is not graded here. Sequences can lack the tags named with a protein.

Columns and labels:
[1] = biological target: T1, thermosome α subunit with a (His)6-tag downstream Lys144 (αK144Ht) (Thermoplasma acidophilum) (UniProt P48424); experiment: negative-stain and cryo-electron microscopy, 2D class averages; purified tagged complex in the apo state; 2% uranyl acetate or vitrified; FEI Tecnai F20, 200 kV; the resolution does not show the arrangement of the subunits; both purified
T1 sequence: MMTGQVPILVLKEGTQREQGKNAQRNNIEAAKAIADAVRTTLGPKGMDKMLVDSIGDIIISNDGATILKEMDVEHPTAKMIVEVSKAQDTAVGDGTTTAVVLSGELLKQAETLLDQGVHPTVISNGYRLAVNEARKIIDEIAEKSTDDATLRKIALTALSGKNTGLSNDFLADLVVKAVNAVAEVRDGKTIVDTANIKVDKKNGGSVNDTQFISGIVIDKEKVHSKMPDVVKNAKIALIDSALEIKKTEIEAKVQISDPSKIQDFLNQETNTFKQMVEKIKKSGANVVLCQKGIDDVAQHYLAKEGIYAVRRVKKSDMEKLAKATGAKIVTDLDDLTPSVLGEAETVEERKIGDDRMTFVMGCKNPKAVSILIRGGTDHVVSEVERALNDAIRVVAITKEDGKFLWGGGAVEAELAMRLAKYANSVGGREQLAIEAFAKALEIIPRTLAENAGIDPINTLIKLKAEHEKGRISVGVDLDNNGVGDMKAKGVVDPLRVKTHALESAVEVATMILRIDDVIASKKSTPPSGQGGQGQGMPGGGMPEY

[2] = biological target: T2, thermosome α subunit, wild type (un-tagged) (Thermoplasma acidophilum) (UniProt P48424); experiment: native gel or EMSA; native gel electrophoresis of the SEC peak, beside the un-tagged recombinant thermosome; subunits co-expressed and co-purified; both purified
T2 sequence: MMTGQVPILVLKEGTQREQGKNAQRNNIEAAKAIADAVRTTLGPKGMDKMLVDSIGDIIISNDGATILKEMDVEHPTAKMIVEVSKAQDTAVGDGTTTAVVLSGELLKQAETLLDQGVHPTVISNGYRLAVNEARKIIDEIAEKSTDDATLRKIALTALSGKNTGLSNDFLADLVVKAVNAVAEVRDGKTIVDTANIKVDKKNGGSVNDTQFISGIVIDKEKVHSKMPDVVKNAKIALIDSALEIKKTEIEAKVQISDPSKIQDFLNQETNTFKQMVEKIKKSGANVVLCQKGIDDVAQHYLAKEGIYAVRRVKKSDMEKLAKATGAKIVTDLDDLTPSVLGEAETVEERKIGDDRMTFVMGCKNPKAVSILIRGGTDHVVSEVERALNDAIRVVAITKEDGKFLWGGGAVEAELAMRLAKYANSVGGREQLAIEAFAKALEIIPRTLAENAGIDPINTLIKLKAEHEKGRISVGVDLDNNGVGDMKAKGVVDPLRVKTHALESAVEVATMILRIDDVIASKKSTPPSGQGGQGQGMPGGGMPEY

[3] = biological target: T1, thermosome α subunit with a (His)6-tag downstream Lys144 (αK144Ht) (Thermoplasma acidophilum); experiment: as above
[4] = biological target: T1, thermosome α subunit with a (His)6-tag downstream Lys144 (αK144Ht) (Thermoplasma acidophilum); experiment: pull-down; Nickel affinity chromatography (5 ml HisTrap FF) of the lysate of E. coli co-expressing tagged α and untagged β; 20 mM NaPho, 0.5 M NaCl, 20 mM imidazole, pH 7.2; elution at about 100 mM imidazole; room temperature; fractions checked by SDS-PAGE

binding [1]: binds
binding [2]: binds
binding [3]: binds
binding [4]: binds
B1: thermosome β subunit (natural protein, Thermoplasma acidophilum)
chain: MIAGQPIFILKEGTKRESGKDAMKENIEAAIAISNSVRSSLGPRGMDKMLVDSLGDIVITNDGVTILKEMDVEHPAAKMMVEVSKTQDSFVGDGTTTAVIIAGGLLQQAQGLINQNVHPTVISEGYRMASEEAKRVIDEISTKIGADEKALLLKMAQTSLNSKSASVAKDKLAEISYEAVKSVAELRDGKYYVDFDNIQVVKKQGGAIDDTQLINGIIVDKEKVHPGMPDVVKDAKIALLDAPLEIKKPEFDTNLRIEDPSMIQKFLAQEENMLREMVDKIKSVGANVVITQKGIDDMAQHYLSRAGIYAVRRVKKSDMDKLAKATGASIVSTIDEISSSDLGTAERVEQVKVGEDYMTFVTGCKNPKAVSILVRGETEHVVDEMERSITDSLHVVASALEDGAYAAGGGATAAEIAFRLRSYAQKIGGRQQLAIEKFADAIEEIPRALAENAGLDPIDILLKLRAEHAKGNKTYGINVFTGEIEDMVKNGVIEPIRVGKQAIESATEAAIMILRIDDVIATKSSSSSSNPPKSGSSSESSED
notes: thermosome β subunit, Thermoplasma acidophilum, P48425; untagged; Eight copies stand in the α8/β8 hexadecamer; also called un-tagged β-subunit; source: E. coli BL21(DE3) Codon Plus-RIL, co-expressed in tandem with the α subunit (αK144HTTherm or pETTherm α/β); in lysate, then purified with the complex
